Counter-ions that a name gives are not always drawn. The list shows a part of the results. The calls rarely recur for the same compound in another form.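 Kinases were expressed as nanoluciferase fusions in K562 cells and luminescence was read every 4 h between 2 and 18 h as percent of control, DMSO set to 100% and a positive control to 0%. A time point counts as decreased when the signal drops significantly (2 sigma). The hit call is the authors' own, does not follow from the count of time points alone, and its rule is not shown.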
Target: ERBB4_R711C (clone: ERBB4_mut) (UniProt Q15303)
Test: kinase-Nluc reporter destabilization hit call (1 = scored as downregulated) (binary); higher = compound decreases kinase abundance
Details: 2.5 µM; K562; 2-18 h

Chains of the proteins cited; added tags and fusions are not shown.
UniProt Q15303, whole entry R711C: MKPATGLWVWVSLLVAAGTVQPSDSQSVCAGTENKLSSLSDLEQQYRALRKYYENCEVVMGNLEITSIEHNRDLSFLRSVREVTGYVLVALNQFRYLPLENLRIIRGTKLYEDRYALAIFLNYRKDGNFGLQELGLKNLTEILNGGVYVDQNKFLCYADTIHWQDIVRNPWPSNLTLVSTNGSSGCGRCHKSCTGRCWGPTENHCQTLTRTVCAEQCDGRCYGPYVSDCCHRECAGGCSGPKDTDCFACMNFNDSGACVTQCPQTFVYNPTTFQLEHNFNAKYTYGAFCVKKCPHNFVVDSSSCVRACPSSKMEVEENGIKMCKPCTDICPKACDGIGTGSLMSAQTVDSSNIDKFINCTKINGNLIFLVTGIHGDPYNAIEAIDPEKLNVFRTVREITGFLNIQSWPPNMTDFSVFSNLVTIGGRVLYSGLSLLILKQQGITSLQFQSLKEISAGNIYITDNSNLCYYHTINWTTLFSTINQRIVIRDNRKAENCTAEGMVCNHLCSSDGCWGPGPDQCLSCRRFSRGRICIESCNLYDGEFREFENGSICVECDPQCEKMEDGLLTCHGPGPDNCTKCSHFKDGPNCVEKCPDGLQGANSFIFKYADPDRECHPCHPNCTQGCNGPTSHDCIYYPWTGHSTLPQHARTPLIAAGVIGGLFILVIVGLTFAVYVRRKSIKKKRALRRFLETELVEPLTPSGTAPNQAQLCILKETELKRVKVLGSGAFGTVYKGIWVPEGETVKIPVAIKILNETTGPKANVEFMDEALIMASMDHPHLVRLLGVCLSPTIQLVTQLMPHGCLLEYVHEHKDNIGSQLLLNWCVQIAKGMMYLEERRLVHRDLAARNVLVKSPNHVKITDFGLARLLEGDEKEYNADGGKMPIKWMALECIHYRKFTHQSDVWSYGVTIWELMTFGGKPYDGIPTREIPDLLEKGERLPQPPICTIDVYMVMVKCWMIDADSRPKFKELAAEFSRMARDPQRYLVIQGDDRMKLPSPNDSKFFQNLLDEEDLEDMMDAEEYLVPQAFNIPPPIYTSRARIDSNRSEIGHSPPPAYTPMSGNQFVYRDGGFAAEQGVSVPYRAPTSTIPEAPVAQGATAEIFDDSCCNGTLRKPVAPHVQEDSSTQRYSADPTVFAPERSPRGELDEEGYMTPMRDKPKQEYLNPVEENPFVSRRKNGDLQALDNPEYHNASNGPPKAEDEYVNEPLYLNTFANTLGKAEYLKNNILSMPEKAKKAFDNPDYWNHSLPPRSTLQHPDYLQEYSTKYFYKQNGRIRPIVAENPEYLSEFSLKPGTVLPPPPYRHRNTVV

kinase-Nluc reporter destabilization hit call, inactive:
C=CC(=O)N1CCC[C@@H](n2nc(-c3ccc(Oc4ccccc4)cc3)c3c(N)ncnc32)C1 [Ibrutinib] 0
Cc1cn(-c2cc(NC(=O)c3ccc(C)c(Nc4nccc(-c5cccnc5)n4)c3)cc(C(F)(F)F)c2)cn1 [Nilotinib] 0
Cc1cc(C)n2c1C=C1C=CC(CCC(=O)NCCN3CCN(C/C=C/C(=O)N4CCCC(n5nc(-c6ccc(Oc7ccccc7)cc6)c6c(N)ncnc65)C4)CC3)=[N+]1[B-]2(F)F (stereo not drawn) 0
Cc1cnc(Nc2ccc(OCCN3CCCC3)cc2)nc1Nc1cccc(S(=O)(=O)NC(C)(C)C)c1 [Fedratinib (hydrochloride hydrate)] 0
O=C(Nc1cccc(Nc2nccc(Nc3cccc(C(F)(F)F)c3)n2)c1)C1CC1 [Aurora kinase inhibitor-3] 0
COc1ccc(-c2cc3nccn3c(Nc3ncccc3C(N)=O)n2)cc1OC [BAY 61-3606 (dihydrochloride)] 0
Nc1nc(Nc2ccc(S(N)(=O)=O)cc2)nn1C(=O)c1c(F)cccc1F 0
COc1cc(N2CCC(N3CCN(C)CC3)CC2)ccc1Nc1ncc(Cl)c(Nc2ccccc2S(=O)(=O)C(C)C)n1 0
COc1cc(Nc2c(C#N)cnc3cc(OCCCN4CCN(C)CC4)c(OC)cc23)c(Cl)cc1Cl [Bosutinib] 0
CCc1cc2c(cc1-c1cnn(CC(=O)N(C)C)c1)C(C)(C)c1[nH]c3cc(C#N)ccc3c1C2=O 0
Cc1cnc(Nc2ccc(OCCN3CCCC3)cc2)nc1Nc1cccc(S(=O)(=O)NC(C)(C)C)c1 [Fedratinib] 0
Cc1cc(Nc2cc(N3CCN(C)CC3)nc(/C=C/c3ccccc3)n2)n[nH]1 [ENMD-2076 (Tartrate)] 0
Cc1cc(Nc2cc(N3CCN(C)CC3)nc(/C=C/c3ccccc3)n2)n[nH]1 0

Same assay, conditions: 10 µM; K562; 2-18 h

kinase-Nluc reporter destabilization hit call, inactive:
C=CC(=O)N1CCC([C@@H]2CCNc3c(C(N)=O)c(-c4ccc(Oc5ccccc5)cc4)nn32)CC1 [Zanubrutinib] 0
CCn1c(=O)c(-c2cc(NC(=O)Nc3ccccc3)c(F)cc2Br)cc2cnc(NC)cc21 [Ripretinib] 0
COc1cc(N2CCN(C)CC2)ccc1Nc1nccc(-c2cn(C)c3cnccc23)n1 0
Fc1ccc(-c2nc(-c3ccc4ccccc4c3F)[nH]c2-c2ccncc2)cc1 0
C=CC(=O)N(C)CCOc1c(N)ncnc1-c1cc(F)cc(NC(=O)c2ccc(C3CC3)cc2F)c1C [Remibrutinib] 0
NCCNc1ncc(C(N)=O)c(Nc2cccc(C(F)(F)F)c2)n1 [Syk Inhibitor II] 0
C[C@@H]1O[C@@H](Oc2c(-c3ccc(O)c(O)c3)oc3cc(O)cc(O)c3c2=O)[C@H](O)[C@H](O)[C@H]1O [Quercitrin] 0
CCCOc1ccc(C=C2SC(=O)NC2=O)cc1 0
Cc1cc2c(F)c(Oc3ncnn4cc(OC[C@@H](C)O)c(C)c34)ccc2[nH]1 [Brivanib] 0
CC(C)[C@@](C)(O)[C@@H]1CN(c2nc(-c3[nH]nc4ncccc34)c(F)cc2Cl)CCN1 0
CCCCCCCCCCCCc1ccc(S(=O)(=O)Nc2nncs2)cc1 0
CC#CC(=O)N1CCC[C@H]1c1nc(-c2ccc(C(=O)Nc3ccccn3)cc2)c2c(N)nccn12 [Acalabrutinib] 0
CC(C)N(CCC(=O)c1ccc2ccccc2c1)Cc1ccccc1 0
C=CC(=O)N1C[C@@H](Nc2ncnc3[nH]ccc23)CC[C@H]1C [(2R,5S)-Ritlecitinib] 0
COc1ccc(-c2cc(C(=O)NN=C(C)c3ccc(OC)c(OC)c3)[nH]n2)cc1 0
Cn1cc(/C=C2\C(=O)Nc3cccnc32)c2ccccc21 0
Cc1ccc2c(=O)c3cccc(CC(=O)O)c3oc2c1C [Vadimezan] 0
C[C@@H]1CN(C(=O)Nc2ccc(-c3nc(N4CCOCC4)c4cnn(CCCCCCC(=O)NO)c4n3)cc2)CCO1 [HDACs/mTOR Inhibitor 1] 0
C[C@H]1CN(C2COC2)CCN1c1ccc(Nc2cc(-c3ccnc(N4CCn5c(cc6c5CC(C)(C)C6)C4=O)c3CO)cn(C)c2=O)nc1 [Fenebrutinib] 0
Nc1ncccc1-c1nc2ccc(-c3ccccc3)nc2n1-c1ccc(C2(N)CCC2)cc1 [Miransertib] 0
O=c1ncn2nc(Sc3ccc(F)cc3F)ccc2c1-c1c(Cl)cccc1Cl [Neflamapimod] 0
CCCCCC1CC1CC1CC1CCCCCCCC(=O)OC (stereo not drawn) 0
CC(C)(C)n1nc(-c2ccc(Cl)cc2)c2c(N)ncnc21 0
NC1(C(=O)N[C@@H](CCO)c2ccc(Cl)cc2)CCN(c2nc[nH]c3nccc2-3)CC1 [Capivasertib] 0
Cc1ccc(O)cc1Nc1ccnc(Nc2cccc(C(N)=O)c2)n1 [Lck inhibitor 2] 0

Retrieved one by one from above (two):
kinase-Nluc reporter destabilization hit call, inactive:
CCCCCCCCCCCCc1ccc(S(=O)(=O)Nc2nncs2)cc1 0
Fc1ccc(-c2nc(-c3ccc4ccccc4c3F)[nH]c2-c2ccncc2)cc1 0

— the supplement of paper PMC12823440, “Inhibitors supercharge kinase turnover through native proteolytic circuits” (Nature, 2025)
